The source of these data is paper PMC5861459.

By UniProt entry, the sequences of proteins in these tests, tags left out.
UniProt P60228: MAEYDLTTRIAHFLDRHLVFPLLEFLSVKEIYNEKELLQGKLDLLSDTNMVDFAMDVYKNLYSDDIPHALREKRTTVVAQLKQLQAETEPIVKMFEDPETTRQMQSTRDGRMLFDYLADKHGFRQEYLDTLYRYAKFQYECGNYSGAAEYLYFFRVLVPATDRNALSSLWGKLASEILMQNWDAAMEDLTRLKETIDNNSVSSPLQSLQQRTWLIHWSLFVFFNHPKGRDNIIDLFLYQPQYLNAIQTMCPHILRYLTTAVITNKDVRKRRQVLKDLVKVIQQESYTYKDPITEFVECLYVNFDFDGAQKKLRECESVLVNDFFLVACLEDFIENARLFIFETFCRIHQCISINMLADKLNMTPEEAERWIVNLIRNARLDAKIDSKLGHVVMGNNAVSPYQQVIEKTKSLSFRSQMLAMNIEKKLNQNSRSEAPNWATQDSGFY
UniProt Q9Y262: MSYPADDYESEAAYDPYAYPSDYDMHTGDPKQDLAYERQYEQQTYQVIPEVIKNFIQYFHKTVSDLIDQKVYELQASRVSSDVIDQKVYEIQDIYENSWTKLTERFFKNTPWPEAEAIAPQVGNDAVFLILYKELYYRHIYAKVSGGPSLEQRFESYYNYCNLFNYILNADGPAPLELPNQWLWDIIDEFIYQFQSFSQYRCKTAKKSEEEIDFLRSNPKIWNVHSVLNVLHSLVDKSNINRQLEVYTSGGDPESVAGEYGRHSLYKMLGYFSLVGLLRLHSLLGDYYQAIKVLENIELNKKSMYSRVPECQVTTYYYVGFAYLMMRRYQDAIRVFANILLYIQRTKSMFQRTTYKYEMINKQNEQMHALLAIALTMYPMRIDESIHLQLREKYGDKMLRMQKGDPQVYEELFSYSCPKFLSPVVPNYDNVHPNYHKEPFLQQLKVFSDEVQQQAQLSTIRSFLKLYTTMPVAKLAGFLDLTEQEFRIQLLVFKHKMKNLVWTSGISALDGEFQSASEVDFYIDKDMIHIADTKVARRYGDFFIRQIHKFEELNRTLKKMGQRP
UniProt O75821: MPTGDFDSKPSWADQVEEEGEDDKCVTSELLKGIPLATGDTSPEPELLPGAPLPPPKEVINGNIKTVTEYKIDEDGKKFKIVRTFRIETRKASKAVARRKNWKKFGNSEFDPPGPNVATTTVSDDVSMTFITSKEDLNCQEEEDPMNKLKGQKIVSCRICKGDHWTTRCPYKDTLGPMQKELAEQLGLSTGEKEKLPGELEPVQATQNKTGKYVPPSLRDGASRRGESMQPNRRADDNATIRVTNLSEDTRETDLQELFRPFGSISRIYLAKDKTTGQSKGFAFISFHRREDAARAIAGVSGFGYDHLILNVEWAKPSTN
UniProt Q13347: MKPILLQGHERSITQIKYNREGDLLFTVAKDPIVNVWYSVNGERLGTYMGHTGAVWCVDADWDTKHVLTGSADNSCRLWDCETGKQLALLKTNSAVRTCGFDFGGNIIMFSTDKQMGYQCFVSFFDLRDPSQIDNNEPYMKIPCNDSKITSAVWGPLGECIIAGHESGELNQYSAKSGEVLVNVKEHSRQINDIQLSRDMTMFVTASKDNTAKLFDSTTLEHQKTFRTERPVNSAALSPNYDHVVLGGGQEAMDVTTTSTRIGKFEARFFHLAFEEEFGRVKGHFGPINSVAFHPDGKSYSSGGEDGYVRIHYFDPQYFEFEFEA

Results are given in words; binding and its absence hold for the method and conditions named.

Assay [1] deals with eukaryotic initiation factor 3 subunit e (human) (UniProt P60228). In words: cross-linking; affinity purified h-48S complexes cross-linked with 1 mM DSS-d0/d12 in 20 mM HEPES-KOH pH 8, 100 mM KCl, 5 mM MgCl2, 0.25 mM GMPPNP; LC-MS, xQuest, FDR <5%; both purified.
Assay [2] addresses eukaryotic initiation factor 3 subunit l (human) (UniProt Q9Y262). The description is as above.

Turning to “eukaryotic initiation factor 3 subunit g (from UniProt O75821 1-320)”, the binding result in assay [1] and in assay [2] was “no binding” in each case.

Regarding “eukaryotic initiation factor 3 subunit i (from UniProt Q13347 1-325)”, the binding entry in assay [1] and in assay [2] was “no binding” throughout.
